40 targets from the supplement of paper PMC7666118 can be followed below.

Sequences of proteins named here, by UniProt entry; tags and fusion partners are left off. A change or cut given only in a name is not applied to a line headed by its entry.
UniProt Q96C36: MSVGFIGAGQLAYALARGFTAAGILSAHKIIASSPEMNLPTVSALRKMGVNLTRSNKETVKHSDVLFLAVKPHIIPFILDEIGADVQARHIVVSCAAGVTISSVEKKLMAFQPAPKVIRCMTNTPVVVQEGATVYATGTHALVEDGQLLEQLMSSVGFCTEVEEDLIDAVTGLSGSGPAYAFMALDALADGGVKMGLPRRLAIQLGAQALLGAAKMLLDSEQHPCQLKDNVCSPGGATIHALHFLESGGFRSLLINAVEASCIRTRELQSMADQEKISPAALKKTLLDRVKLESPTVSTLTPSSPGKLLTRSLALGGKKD
UniProt P46060: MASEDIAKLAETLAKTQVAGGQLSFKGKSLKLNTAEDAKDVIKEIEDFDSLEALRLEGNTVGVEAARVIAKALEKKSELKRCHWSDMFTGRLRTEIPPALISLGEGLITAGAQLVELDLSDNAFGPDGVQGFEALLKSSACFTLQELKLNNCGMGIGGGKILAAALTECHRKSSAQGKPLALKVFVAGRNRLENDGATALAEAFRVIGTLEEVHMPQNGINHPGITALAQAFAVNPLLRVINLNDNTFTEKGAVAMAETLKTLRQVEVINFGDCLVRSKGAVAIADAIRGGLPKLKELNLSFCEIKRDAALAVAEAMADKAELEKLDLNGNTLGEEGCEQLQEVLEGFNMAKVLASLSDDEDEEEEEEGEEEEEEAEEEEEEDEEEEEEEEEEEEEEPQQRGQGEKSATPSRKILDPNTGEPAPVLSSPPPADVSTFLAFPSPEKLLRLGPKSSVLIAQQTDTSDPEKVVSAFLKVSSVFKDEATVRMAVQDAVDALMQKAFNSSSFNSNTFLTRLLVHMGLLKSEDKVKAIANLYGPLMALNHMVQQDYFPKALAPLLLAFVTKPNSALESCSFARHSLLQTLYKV
UniProt O14744, whole entry: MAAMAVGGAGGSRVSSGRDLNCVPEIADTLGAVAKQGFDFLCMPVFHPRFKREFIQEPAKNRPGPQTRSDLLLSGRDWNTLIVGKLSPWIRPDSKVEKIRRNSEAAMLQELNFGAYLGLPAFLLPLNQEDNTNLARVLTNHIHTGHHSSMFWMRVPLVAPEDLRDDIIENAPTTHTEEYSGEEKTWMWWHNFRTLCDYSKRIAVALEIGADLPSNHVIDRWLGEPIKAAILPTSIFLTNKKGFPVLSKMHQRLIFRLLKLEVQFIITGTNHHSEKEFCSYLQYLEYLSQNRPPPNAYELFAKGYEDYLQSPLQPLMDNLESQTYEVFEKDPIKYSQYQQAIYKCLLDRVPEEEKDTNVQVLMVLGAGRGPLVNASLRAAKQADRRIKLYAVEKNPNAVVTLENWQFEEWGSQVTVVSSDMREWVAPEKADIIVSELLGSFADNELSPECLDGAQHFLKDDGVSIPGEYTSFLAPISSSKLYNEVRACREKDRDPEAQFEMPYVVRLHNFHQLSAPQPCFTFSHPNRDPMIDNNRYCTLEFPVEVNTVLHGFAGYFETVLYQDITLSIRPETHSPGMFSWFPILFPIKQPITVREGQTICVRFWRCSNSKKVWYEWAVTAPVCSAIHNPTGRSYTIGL
UniProt Q96QF0: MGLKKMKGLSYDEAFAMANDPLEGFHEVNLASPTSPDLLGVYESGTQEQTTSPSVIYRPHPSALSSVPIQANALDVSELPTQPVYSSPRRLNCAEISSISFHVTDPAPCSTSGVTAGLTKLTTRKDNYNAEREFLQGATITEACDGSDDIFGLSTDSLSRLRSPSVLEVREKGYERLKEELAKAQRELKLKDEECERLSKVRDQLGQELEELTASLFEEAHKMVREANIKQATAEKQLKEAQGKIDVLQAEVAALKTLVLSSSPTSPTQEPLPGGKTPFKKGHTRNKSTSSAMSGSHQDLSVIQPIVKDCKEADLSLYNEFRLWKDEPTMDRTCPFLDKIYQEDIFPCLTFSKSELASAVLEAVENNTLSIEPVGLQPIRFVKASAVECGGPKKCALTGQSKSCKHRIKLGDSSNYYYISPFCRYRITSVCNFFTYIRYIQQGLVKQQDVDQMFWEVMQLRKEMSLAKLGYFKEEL
UniProt Q86YS6: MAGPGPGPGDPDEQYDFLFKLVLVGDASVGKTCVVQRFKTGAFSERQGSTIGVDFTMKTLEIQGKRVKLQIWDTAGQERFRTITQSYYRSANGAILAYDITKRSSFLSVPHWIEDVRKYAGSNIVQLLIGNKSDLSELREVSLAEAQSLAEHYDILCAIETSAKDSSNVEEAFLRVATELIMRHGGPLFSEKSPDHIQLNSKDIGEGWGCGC
UniProt P62491: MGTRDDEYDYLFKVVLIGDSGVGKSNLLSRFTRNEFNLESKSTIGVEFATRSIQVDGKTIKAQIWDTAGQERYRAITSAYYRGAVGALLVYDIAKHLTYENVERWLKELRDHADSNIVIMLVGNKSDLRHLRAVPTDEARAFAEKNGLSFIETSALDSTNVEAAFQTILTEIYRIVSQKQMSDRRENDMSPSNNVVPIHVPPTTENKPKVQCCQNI
UniProt P41743, whole entry: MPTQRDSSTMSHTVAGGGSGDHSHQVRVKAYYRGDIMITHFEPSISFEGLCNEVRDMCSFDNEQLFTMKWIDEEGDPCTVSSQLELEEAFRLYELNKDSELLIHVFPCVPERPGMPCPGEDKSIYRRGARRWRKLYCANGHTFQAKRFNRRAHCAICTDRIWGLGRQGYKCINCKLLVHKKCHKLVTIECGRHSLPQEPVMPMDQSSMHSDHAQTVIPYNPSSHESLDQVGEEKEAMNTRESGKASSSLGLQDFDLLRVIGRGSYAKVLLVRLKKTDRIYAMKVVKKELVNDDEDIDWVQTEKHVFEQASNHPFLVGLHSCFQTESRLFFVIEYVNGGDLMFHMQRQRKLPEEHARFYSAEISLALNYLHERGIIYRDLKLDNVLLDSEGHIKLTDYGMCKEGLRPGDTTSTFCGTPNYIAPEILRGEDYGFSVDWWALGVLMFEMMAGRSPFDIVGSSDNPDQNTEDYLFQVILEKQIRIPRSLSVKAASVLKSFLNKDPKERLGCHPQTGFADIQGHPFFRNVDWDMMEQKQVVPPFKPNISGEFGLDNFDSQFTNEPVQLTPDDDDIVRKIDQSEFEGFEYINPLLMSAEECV
UniProt P28749: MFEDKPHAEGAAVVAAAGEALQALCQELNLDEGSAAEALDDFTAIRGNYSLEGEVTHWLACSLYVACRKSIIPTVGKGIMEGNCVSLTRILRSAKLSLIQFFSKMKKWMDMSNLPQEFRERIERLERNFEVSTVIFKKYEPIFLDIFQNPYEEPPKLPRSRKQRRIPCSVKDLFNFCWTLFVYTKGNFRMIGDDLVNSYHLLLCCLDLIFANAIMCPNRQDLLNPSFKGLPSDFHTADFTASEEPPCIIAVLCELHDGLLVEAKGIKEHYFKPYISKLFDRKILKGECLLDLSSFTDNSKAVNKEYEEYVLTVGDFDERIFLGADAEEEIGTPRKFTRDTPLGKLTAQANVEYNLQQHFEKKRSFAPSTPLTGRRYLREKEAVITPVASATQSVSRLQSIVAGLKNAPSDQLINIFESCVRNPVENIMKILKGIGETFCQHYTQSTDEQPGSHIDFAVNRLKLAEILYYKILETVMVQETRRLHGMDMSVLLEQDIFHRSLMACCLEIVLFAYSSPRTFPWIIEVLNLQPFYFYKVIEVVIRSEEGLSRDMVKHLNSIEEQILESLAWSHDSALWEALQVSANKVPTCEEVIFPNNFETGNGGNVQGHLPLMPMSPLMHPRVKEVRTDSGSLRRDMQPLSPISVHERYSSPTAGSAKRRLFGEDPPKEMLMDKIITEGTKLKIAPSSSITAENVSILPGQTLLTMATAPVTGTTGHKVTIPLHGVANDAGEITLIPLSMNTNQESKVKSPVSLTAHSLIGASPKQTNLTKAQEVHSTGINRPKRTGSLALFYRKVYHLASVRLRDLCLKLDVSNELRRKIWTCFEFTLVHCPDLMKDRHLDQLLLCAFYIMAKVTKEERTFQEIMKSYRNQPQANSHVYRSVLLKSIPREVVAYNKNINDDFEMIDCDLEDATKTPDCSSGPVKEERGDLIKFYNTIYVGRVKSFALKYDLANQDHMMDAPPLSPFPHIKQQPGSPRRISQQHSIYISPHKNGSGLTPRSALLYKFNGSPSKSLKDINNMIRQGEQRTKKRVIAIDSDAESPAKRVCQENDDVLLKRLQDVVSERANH
UniProt Q16576, whole entry: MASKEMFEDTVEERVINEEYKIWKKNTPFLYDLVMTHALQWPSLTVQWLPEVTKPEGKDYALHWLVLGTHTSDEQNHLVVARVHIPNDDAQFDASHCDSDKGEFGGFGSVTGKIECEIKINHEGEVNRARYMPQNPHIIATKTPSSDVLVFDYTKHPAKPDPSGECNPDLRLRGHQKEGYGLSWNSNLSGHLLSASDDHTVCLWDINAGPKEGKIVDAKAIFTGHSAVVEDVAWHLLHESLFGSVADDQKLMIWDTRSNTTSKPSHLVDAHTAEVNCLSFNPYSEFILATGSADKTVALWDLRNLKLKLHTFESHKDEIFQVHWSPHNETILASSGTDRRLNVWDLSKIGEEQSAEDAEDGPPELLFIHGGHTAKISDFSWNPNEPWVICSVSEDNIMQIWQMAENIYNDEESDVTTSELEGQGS
UniProt Q7Z5J4: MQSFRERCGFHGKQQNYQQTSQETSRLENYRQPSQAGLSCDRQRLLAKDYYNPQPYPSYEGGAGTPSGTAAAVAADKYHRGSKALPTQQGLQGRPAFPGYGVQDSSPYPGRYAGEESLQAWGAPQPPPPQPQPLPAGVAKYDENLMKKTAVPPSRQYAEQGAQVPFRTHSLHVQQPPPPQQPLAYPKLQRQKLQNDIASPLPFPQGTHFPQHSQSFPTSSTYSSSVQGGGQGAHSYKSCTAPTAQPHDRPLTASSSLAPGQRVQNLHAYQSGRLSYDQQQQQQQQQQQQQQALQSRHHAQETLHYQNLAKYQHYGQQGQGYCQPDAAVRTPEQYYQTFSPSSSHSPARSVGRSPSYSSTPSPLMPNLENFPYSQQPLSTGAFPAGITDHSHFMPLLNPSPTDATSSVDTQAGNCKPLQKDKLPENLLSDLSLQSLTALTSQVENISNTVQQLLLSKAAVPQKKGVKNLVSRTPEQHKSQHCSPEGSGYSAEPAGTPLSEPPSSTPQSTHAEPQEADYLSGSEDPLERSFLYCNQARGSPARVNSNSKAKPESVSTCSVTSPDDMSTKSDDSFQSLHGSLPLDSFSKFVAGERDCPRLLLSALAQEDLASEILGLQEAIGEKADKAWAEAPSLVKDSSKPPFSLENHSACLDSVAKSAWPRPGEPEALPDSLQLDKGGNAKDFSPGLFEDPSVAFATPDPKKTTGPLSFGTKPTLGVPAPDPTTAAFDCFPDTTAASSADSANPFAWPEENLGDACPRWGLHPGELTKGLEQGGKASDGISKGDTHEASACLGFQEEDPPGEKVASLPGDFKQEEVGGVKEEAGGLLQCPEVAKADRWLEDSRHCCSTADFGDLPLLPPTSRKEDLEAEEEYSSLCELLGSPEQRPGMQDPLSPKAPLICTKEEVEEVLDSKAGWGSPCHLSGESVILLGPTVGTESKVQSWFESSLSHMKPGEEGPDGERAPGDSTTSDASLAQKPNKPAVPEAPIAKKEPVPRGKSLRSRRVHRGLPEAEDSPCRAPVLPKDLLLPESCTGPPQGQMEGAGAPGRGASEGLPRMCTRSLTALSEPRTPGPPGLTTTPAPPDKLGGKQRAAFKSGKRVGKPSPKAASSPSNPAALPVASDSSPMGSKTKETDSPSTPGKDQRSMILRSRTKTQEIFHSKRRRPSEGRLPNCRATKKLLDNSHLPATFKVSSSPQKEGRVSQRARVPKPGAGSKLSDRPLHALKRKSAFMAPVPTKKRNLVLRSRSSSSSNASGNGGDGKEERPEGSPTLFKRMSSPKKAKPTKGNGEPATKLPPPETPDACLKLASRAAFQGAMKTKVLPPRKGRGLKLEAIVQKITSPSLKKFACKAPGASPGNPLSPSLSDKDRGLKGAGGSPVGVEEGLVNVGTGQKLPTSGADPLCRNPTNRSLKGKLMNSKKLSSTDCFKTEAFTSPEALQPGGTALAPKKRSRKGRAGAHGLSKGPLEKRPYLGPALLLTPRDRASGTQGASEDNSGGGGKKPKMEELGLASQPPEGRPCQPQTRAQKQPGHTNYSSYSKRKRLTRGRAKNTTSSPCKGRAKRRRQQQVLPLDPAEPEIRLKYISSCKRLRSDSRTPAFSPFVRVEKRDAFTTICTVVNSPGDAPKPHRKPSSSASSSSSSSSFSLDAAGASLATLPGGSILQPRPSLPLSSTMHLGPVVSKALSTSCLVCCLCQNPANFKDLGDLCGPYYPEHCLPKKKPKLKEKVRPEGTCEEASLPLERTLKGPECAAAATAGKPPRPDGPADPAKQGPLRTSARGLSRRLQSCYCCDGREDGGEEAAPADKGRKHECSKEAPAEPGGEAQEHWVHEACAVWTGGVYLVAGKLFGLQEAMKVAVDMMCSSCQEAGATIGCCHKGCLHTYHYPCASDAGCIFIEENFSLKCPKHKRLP
UniProt P20962: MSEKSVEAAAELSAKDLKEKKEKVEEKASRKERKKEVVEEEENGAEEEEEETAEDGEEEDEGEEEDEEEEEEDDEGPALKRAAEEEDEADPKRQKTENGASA

The list shows a part of the results.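 Rule for the calls: active = dose-dependent thermal stabilisation significant by F-test of dose-response against flat model at 10% FDR; inactive = not significant.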

Compound in this experiment: Nc1nc2c(ncn2[C@@H]2O[C@H](COP(=O)(O)OP(=O)(O)OP(=O)(O)O)[C@@H](O)[C@H]2O)c(=O)[nH]1
Nature of the experiment: dose-dependent thermal stabilisation call (2D-TPP, DLPTP, 10% FDR) (binary (1 = stabilised)); higher = stabilised by the compound. The note with it: system: Jurkat gel-filtered lysate; concentration range 1-500 µM. How it is done: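 2D thermal proteome profiling in gel-filtered Jurkat E6.1 lysate (2 mg/ml) treated with NaGTP (0, 1, 10, 100, 500 uM) for 10 min at room temperature, then heated 3 min at one of 12 temperatures (42-63.9 C). Soluble protein was quantified by TMT10 MS. The value is the DLPTP call of the paper: dose-dependent thermal stabilisation over all temperatures at 10% FDR (F-test of a dose-response against a flat model); one experiment, one call per tested protein.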
For the target PSMA5 (UniProt P28066), the “dose-dependent thermal stabilisation call” value is inactive: 0.
On to PTPRC (UniProt P08575), for which the “dose-dependent thermal stabilisation call” value was inactive: 0.
As to PYCR2 (UniProt Q96C36), the “dose-dependent thermal stabilisation call” value was inactive: 0.
Under RANGAP1 (UniProt P46060) stands inactive: 0; under RAB33A (UniProt Q14088), active: 1.
On to PRMT5 (UniProt O14744), for which the “dose-dependent thermal stabilisation call” value is inactive: 0.
For RAB1B (UniProt Q9H0U4), the “dose-dependent thermal stabilisation call” value is active: 1.
As for PSAP (UniProt P07602), the “dose-dependent thermal stabilisation call” value is inactive: 0.
Under RBX1 (UniProt P62877) stands inactive: 0.
Next, PRKACB (UniProt P22694): inactive: 0; PRPF40A (UniProt O75400): inactive: 0; RAB3IP (UniProt Q96QF0): inactive: 0.
Next, PSMD2 (UniProt Q13200): active: 1; PTP4A2 (UniProt Q12974): inactive: 0.
In the case of PTPN2 (UniProt P17706), the “dose-dependent thermal stabilisation call” value was inactive: 0.
Under PSMC4 (UniProt P43686) stands inactive: 0; under RCOR1 (UniProt Q9UKL0), inactive: 0.
Turning to RC3H1 (UniProt Q5TC82), the “dose-dependent thermal stabilisation call” value is inactive: 0.
Next, RAB7A (UniProt P51149): active: 1; RAN (UniProt P62826): inactive: 0.
Next, RAB43 (UniProt Q86YS6): active: 1.
Under RAB11A (UniProt P62491) stands active: 1; under PRKCQ (UniProt Q04759), active: 1; under RBFOX1 (UniProt Q9NWB1), inactive: 0.
For the target PRKCI (UniProt P41743), the “dose-dependent thermal stabilisation call” value was inactive: 0.
Under RBL1 (UniProt P28749) stands inactive: 0; under PSMB1 (UniProt P20618), inactive: 0; under RCN1 (UniProt Q15293), inactive: 0.
Next, RAB2B (UniProt Q8WUD1): active: 1; PSMD6 (UniProt Q15008): inactive: 0.
RBBP7 (UniProt Q16576): the “dose-dependent thermal stabilisation call” value is active: 1.
Next, PRR36 (UniProt Q9H6K5): inactive: 0; PSMD9 (UniProt O00233): inactive: 0.
RBKS (UniProt Q9H477): the “dose-dependent thermal stabilisation call” value was inactive: 0.
Next, RAI1 (UniProt Q7Z5J4): inactive: 0; PRKCD (UniProt Q05655): inactive: 0.
Under RABL6 (UniProt Q3YEC7) stands inactive: 0; under PTPN6 (UniProt P29350), active: 1.
Under PTMS (UniProt P20962) stands inactive: 0.
As for RASAL3 (UniProt Q86YV0), the “dose-dependent thermal stabilisation call” value was inactive: 0.
